{"source": "PubChem BioAssay AID493014", "about": "(National Center for Advancing Translational Sciences (NCATS), 2011)", "note": "The whole screen tested about 340,000 compounds, of which about 170 (0.05%) were called active. This list was built around the results that the source calls inconclusive (neither active nor inactive); the mix of calls is not that of the screen. Calls come from the whole dose curve; as a rule, active = well fitted inhibition curve with a large enough effect in the signal ratio, with a control signal flat (not every such curve was filed as active); inconclusive = small, poorly fitted or top-dose-only effect, or effect the other way, or a change in a side signal; inactive = flat fitted curve, though single readings scatter; the % refers to the signal ratio. Potencies of inconclusive entries are doubtful fits and often do not repeat. Potency is the fitted concentration of half-maximal effect.", "data": [{"assay": "qHTS Assay to Find Inhibitors of Chronic Active B-Cell Receptor Signaling;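 for activity change, negative = inhibition: plate controls were basal doxycycline-induced cells for no effect and cells given 10 µM MG132 for full effect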", "conditions": "ABC-DLBCL IkBa-CBG/CBR reporter, luminescence ratio (green luciferase fused to IkBa over red control in TMD8 lymphoma cells), 4 h; activity change, negative = inhibition: at 46.1 µM (top of the series)", "in_short": "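TMD8 human ABC-DLBCL cells with doxycycline-inducible IκBα–green luciferase fusion and unfused red luciferase, in 0.5% FBS medium; compounds up to 46 uM, 4 h at 37C. Green/red luminescence ratio, filter-overlap corrected, fitted to concentration-response curves.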", "values": [{"smiles": "C/C(=N/NC(=O)c1nnn(-c2nonc2N)c1COc1ccccc1)c1ccccc1Cl", "activity change, negative = inhibition": "inactive: 13.2%"}, {"smiles": "COc1cccc(NC(=O)COC(=O)c2ccccc2SCC(=O)N2CCCC2)c1", "activity change, negative = inhibition": "inconclusive: 2.76%"}, {"smiles": "CC(C)CC(=O)NC(NC(=S)Nc1sc2c(c1C#N)CCCC2)C(Cl)(Cl)Cl", "note": "(centres undefined)", "activity change, negative = inhibition": "inactive: 16.3%"}, {"smiles": "O=C(N/N=C/c1nn(-c2ccccc2)cc1-c1ccccc1)c1ccncc1", "activity change, negative = inhibition": "inconclusive: -0.841%"}, {"smiles": "CCc1nc(Nc2cccc(F)c2)c2oc3ccccc3c2n1", "Potency": "inconclusive: 0.708 µM [falling, partial curve, poor fit]"}, {"smiles": "Cc1ccc(S(=O)(=O)N2CCN(CC(=O)NC3CCCc4ccccc43)CC2)c(C)c1", "note": "(centres undefined)", "activity change, negative = inhibition": "inactive: -17.2%"}, {"smiles": "O=c1c2ccccc2nc(-c2ccccc2)n1Cc1ccc(Cl)cc1", "activity change, negative = inhibition": "inconclusive: -1.79%"}, {"smiles": "CCc1[nH]nc(C(=O)N/N=C/c2ccncc2)c1C", "Potency": "inconclusive: 15.8 µM [falling, single point]"}, {"smiles": "COc1cc(/C=C2\\SC(=O)N(c3ccc(Cl)cc3)C2=O)cc([N+](=O)[O-])c1O", "activity change, negative = inhibition": "inconclusive: 0.35%"}, {"smiles": "O=C(CCl)N(CCc1ccccc1)CCc1ccccc1", "activity change, negative = inhibition": "inconclusive: -7.6%"}, {"smiles": "Cc1c(C(=O)NNC(=O)c2ccncc2)oc2ccccc12", "Potency": "inconclusive: 20.6 µM [falling, partial curve]"}, {"smiles": "COC(=O)c1cccc(COC(=O)c2ccc(N(C)C)cc2)c1", "activity change, negative = inhibition": "inconclusive: 10.5%"}, {"smiles": "CC(=O)N1N=C(c2ccncc2)OC12CCCCC2", "activity change, negative = inhibition": "inconclusive: -11.3%"}, {"smiles": "COC(=O)CN1C(=O)S/C(=C/c2cc(C)n(C)c2C)C1=O", "activity change, negative = inhibition": "inactive: -6.78%"}, {"smiles": "CC(C)NC(=O)c1ccc2c(c1)N(CC(=O)NC1CCCCC1)C(=O)C(C)(C)O2", "activity change, negative = inhibition": "inconclusive: 3.63%"}, {"smiles": "CC(C)[C@H](NC(=O)c1ccccc1Cl)C(=O)Nc1nc(-c2ccccn2)cs1", "activity change, negative = inhibition": "inconclusive: -19.7%"}, {"smiles": "Cc1ccc(C(=O)NNC(=O)c2ccc(S(=O)(=O)N3CCCCC3)cc2)cc1", "activity change, negative = inhibition": "inactive: 0.0274%"}, {"smiles": "COc1cc(/C=N/OCC(=O)Nc2ccc(OC(F)F)cc2)ccc1OCc1ccccc1", "activity change, negative = inhibition": "inactive: -0.822%"}, {"smiles": "COCc1c(C(=O)NCC2COc3ccccc3O2)oc2ccccc12", "note": "(centres undefined)", "activity change, negative = inhibition": "inactive: 1.6%"}, {"smiles": "O=C(OCc1cc(=O)n2c(n1)sc1ccccc12)c1cccc(O)c1", "activity change, negative = inhibition": "inconclusive: -15.7%"}, {"smiles": "COc1cccc(Cn2c(=O)n(-c3cccc(Cl)c3C)c(=O)c3c4c(sc32)CN(C(C)=O)CC4)c1", "activity change, negative = inhibition": "inconclusive: -0.0326%"}, {"smiles": "COc1ccc(-c2nn(-c3ccccc3C)cc2CNCCc2cnc[nH]2)cc1F", "activity change, negative = inhibition": "inconclusive: -5.59%"}, {"smiles": "CC1CCC(C(C)C)C(OC(=O)C[n+]2cc(-c3ccc(Cl)cc3)n3c2CCCCC3)C1", "note": "(centres undefined)", "activity change, negative = inhibition": "inconclusive: 1.37%"}, {"smiles": "COCCN(C(=O)CSc1nc(N)cc(=O)[nH]1)c1c(N)n(Cc2ccccc2)c(=O)[nH]c1=O", "activity change, negative = inhibition": "inactive: -3.26%"}, {"smiles": "C/C(=N\\NC(=O)CC#N)c1cc2ccccc2oc1=O", "activity change, negative = inhibition": "inconclusive: -14.7%"}, {"smiles": "Cc1ccc(C2=NC(C(F)(F)F)(C(F)(F)F)c3c(n(-c4ccc(F)cc4)c(=O)[nH]c3=O)N2)cc1", "activity change, negative = inhibition": "inconclusive: 0.624%"}, {"smiles": "COc1cccc(/C=N/NC(=O)c2nnn(-c3nonc3N)c2-c2cccs2)c1", "activity change, negative = inhibition": "inconclusive: 5.85%"}, {"smiles": "Cc1sc2ncnc(OCC(=O)NCc3cccs3)c2c1C", "activity change, negative = inhibition": "inconclusive: -9.9%"}, {"smiles": "Cc1ccc(CNC(=O)CCCc2nc3ccccc3s2)cc1", "activity change, negative = inhibition": "inconclusive: -6.72%"}, {"smiles": "Cc1ccc(-n2ncc3c(NCc4ccc5c(c4)OCO5)ncnc32)c(C)c1", "Potency": "inconclusive: 10 µM [falling, partial curve, poor fit]"}, {"smiles": "C/C(=N\\O)C(=O)Nc1ccccc1", "activity change, negative = inhibition": "inactive: -1.14%"}, {"smiles": "COc1ccc(/C=N/NC(=O)C(=O)/C=C2\\NC3(CCCC3)Cc3ccccc32)cc1", "activity change, negative = inhibition": "inconclusive: -0.566%"}, {"smiles": "Brc1ccc(/C=N/Nc2ccccn2)cc1", "activity change, negative = inhibition": "inconclusive: 9.18%"}, {"smiles": "COc1ccc(CCN2CC(C(=O)N(C)Cc3cccnc3)CC2=O)cc1OC", "note": "(centres undefined)", "activity change, negative = inhibition": "inconclusive: 1.53%"}, {"smiles": "O=C(c1ccccc1C(F)(F)F)N1CCN(S(=O)(=O)c2ccccc2)CC1", "activity change, negative = inhibition": "inconclusive: -1.68%"}, {"smiles": "C#CCOc1ccc(/C=N/NC(=O)c2cccnc2)cc1OCC", "Potency": "inconclusive: 5.62 µM [activator, partial curve, poor fit]"}, {"smiles": "Cc1ccc(C(=O)c2c3ccc(C(F)(F)F)cc3[n+]([O-])n2CCCN)cc1", "activity change, negative = inhibition": "inactive: -18.3%"}, {"smiles": "CC(=O)c1cccc(NC(=O)c2cnn(-c3ccccc3)c2C)c1", "activity change, negative = inhibition": "inconclusive: -19.8%"}, {"smiles": "CC1CN(c2ncnc3c2cnn3-c2ccc(Cl)cc2)CC(C)O1", "note": "(centres undefined)", "activity change, negative = inhibition": "inconclusive: 13.3%"}, {"smiles": "COc1ccc(-c2csc(CCN3N=C(C)CC3=O)n2)cc1", "activity change, negative = inhibition": "inconclusive: -13.2%"}, {"smiles": "CC(=O)N1CCN(c2ccc(NC(=O)c3ccco3)cc2Cl)CC1", "activity change, negative = inhibition": "inconclusive: 2.58%"}, {"smiles": "CCN(CC(=O)NC(C)(C)C)C(=O)c1ccccc1SCC(=O)NC1CCCCCCC1", "activity change, negative = inhibition": "inconclusive: -4.21%"}, {"smiles": "Cc1[nH]c(=O)c(C#N)c(C)c1Br", "activity change, negative = inhibition": "inconclusive: 3.01%"}, {"smiles": "Cc1ccc[n+](-c2[nH]c(=O)sc2/C=N/NC(=O)c2ccccc2[O-])c1", "Potency": "inconclusive: 29.1 µM [falling, single point]"}, {"smiles": "CCOC(=O)N1CCN(c2nc(-c3cccc(OC)c3)cc(C(F)(F)F)n2)CC1", "activity change, negative = inhibition": "inactive: 2.65%"}, {"smiles": "CCN1C(=O)CSc2ccc(C(=O)NCc3ccccc3OC)cc21", "activity change, negative = inhibition": "inconclusive: -1.19%"}, {"smiles": "COC(=O)c1c(-c2ccc(C)cc2)csc1NC(=O)C1CC=CCC1C(=O)O", "note": "(centres undefined)", "Potency": "inconclusive: 9.2 µM [activator, partial curve, poor fit]"}, {"smiles": "COc1nc2c(C)cccc2cc1-c1noc(-c2ccco2)n1", "activity change, negative = inhibition": "inconclusive: 7.42%"}, {"smiles": "Cc1ccc(C2=N/C(=C\\c3cccc(F)c3)C(=O)O2)cc1", "activity change, negative = inhibition": "inconclusive: 0.527%"}, {"smiles": "CC1CN(C(=O)CCC(=O)NCc2ccccc2)c2ccccc2O1", "note": "(centres undefined)", "activity change, negative = inhibition": "inactive: 5.31%"}, {"smiles": "O=NN(CCc1ccncc1)c1ccc(OCc2ccccc2)cc1", "Potency": "inconclusive: 25.1 µM [falling, single point]"}, {"smiles": "CCCC(=O)Nc1cccc(-c2nc3ccccc3c(=O)o2)c1", "Potency": "inconclusive: 1 µM [falling, partial curve, poor fit]"}, {"smiles": "Cc1c(C(=O)O)sc2nc(/C=C/c3cccc(O)c3)[nH]c(=O)c12", "Potency": "inconclusive: 3.98 µM [falling, partial curve]"}, {"smiles": "CCOC(=O)C1(Cc2cccc(OC)c2)CCN(Cc2ccc(OC)c(O)c2)CC1", "activity change, negative = inhibition": "inactive: -3.83%"}, {"smiles": "COc1cc(-c2nnc(SCC(=O)N3CCCC3)o2)cc(OC)c1OC", "activity change, negative = inhibition": "inactive: -3.02%"}, {"smiles": "CCSc1nnc(NC(=O)NCC(F)(F)F)s1", "activity change, negative = inhibition": "inconclusive: -0.109%"}, {"smiles": "Cc1cccnc1NC(=O)CN1C(=O)c2ccccc2S1(=O)=O", "activity change, negative = inhibition": "inactive: -0.828%"}, {"smiles": "CNc1nc(SCc2ccccc2Cl)nc2c1CCCC2", "activity change, negative = inhibition": "inconclusive: -21.2%"}, {"smiles": "O=C(c1ccc2c3n(nc2c1)-c1ccc(Cl)cc1CO3)N1CCOCC1", "activity change, negative = inhibition": "inconclusive: 6.3%"}, {"smiles": "COc1cc2cc(CCCOC(=O)c3ccc(C(F)(F)F)cc3)oc(=O)c2cc1OC", "activity change, negative = inhibition": "inconclusive: 0.732%"}, {"smiles": "CCN(CC)CC(=O)N1CCCC(C(=O)c2ccccc2OC)C1", "note": "(centres undefined)", "activity change, negative = inhibition": "inconclusive: -7.71%"}, {"smiles": "CSc1ncccc1C(=O)Nc1nccs1", "activity change, negative = inhibition": "inactive: -2.04%"}, {"smiles": "Cc1ccc(-n2cnc3cc(NCc4cccs4)ccc32)cc1", "Potency": "inconclusive: 29.1 µM [falling, single point]"}, {"smiles": "FC(F)(F)c1cccc(NC(=S)NNC(=S)Nc2cccc(C(F)(F)F)c2)c1", "activity change, negative = inhibition": "inconclusive: 19.5%"}, {"smiles": "O=C(COC(=O)CNC(=O)c1ccccc1)NCCCc1ccccc1", "activity change, negative = inhibition": "inactive: 2.59%"}, {"smiles": "COc1ccc(Br)cc1/C=N/N1CCN(Cc2ccccc2)CC1", "activity change, negative = inhibition": "inactive: 13.4%"}, {"smiles": "O=C(c1cc(=O)[nH]c2ccccc12)N(Cc1nnc(-c2ccccc2Cl)o1)C1CC1", "activity change, negative = inhibition": "inactive: -14.1%"}, {"smiles": "O=C1C2C3C=CC(CO)(O3)C2C(=O)N1c1ccc(-c2ccccc2)cc1", "note": "(centres undefined)", "activity change, negative = inhibition": "inconclusive: -7.69%"}, {"smiles": "OC(CC#CCN1CCCC1)(c1ccccc1)c1ccccc1", "activity change, negative = inhibition": "inconclusive: 0.568%"}, {"smiles": "COc1ccc(NC(=O)Cn2c(=O)oc3cc(S(=O)(=O)NC(C)C)ccc32)cc1OC", "activity change, negative = inhibition": "inactive: 6.36%"}, {"smiles": "OCCCNc1c2ccccc2nc2ccccc12", "Potency": "inconclusive: 14.1 µM [activator, partial curve, poor fit]"}, {"smiles": "COc1ccc2c(c1)c1ncn(Cc3ccccn3)c(=O)c1n2C", "activity change, negative = inhibition": "inconclusive: 6.99%"}, {"smiles": "CSc1nc(N)c2c3c(sc2n1)COC(C(C)C)C3", "note": "(centres undefined)", "Potency": "inconclusive: 1.64 µM [rising, full curve, poor fit]"}, {"smiles": "CSc1nc(=O)n(-c2ccccc2)c(C)c1C(C)=O", "activity change, negative = inhibition": "inactive: -0.332%"}, {"smiles": "O=C(COc1ccc(Cl)cc1Br)NCC(c1ccco1)N1CCCC1", "note": "(centres undefined)", "activity change, negative = inhibition": "inconclusive: 2.06%"}, {"smiles": "Cc1ccc(O)c(CNCCNCc2cc(C)ccc2O)c1", "activity change, negative = inhibition": "inconclusive: -20.7%"}, {"smiles": "Cc1cc(C)cc(OCC(=O)OC/C(O)=C(\\C#N)c2nc3ccccc3[nH]2)c1", "activity change, negative = inhibition": "inactive: 9.94%"}, {"smiles": "CCn1nc(C)cc1C(=O)Sc1cccc(Cl)c1", "Potency": "inconclusive: 35.5 µM [falling, single point]"}, {"smiles": "Cc1ccc2nc(NC3=NCN(Cc4cccnc4)CN3)nc(C)c2c1", "activity change, negative = inhibition": "inconclusive: 12.6%"}, {"smiles": "Cc1ccc(/C=C/C(=O)Nc2nn[nH]n2)o1", "activity change, negative = inhibition": "inactive: 0.271%"}, {"smiles": "CCN(CC(=O)Nc1ccccc1C(F)(F)F)C(=O)c1ccc2[nH]c3c(c2c1)CC(C)CC3", "note": "(centres undefined)", "Potency": "inconclusive: 10.3 µM [rising, partial curve]"}, {"smiles": "COc1ccc(C(=O)NC2CCCc3ccccc32)c(OC)c1OC", "note": "(centres undefined)", "activity change, negative = inhibition": "inactive: -3.04%"}, {"smiles": "CCN(CC)S(=O)(=O)c1ccc(C(=O)NCCOC(=O)c2ccc(F)cc2F)cc1", "activity change, negative = inhibition": "inconclusive: 0.237%"}, {"smiles": "COc1ccc(C(=O)N(c2ccc(C)cc2)C2C=CS(=O)(=O)C2)cc1OC", "note": "(centres undefined)", "Potency": "inconclusive: 11.2 µM [falling, partial curve, poor fit]"}]}]}
